Assay results: patent US8173604
Results are given in words; binding and its absence hold for the method and conditions named. In cells and extracts the contact can be indirect. Some binding calls cover weakened binding; strength is not graded here.

Protein sequences, listed by entry. Tags and fused reporters are not part of them. Lines headed by an entry give the natural chain unless they say otherwise; changes in a name come on top.
UniProt P24385: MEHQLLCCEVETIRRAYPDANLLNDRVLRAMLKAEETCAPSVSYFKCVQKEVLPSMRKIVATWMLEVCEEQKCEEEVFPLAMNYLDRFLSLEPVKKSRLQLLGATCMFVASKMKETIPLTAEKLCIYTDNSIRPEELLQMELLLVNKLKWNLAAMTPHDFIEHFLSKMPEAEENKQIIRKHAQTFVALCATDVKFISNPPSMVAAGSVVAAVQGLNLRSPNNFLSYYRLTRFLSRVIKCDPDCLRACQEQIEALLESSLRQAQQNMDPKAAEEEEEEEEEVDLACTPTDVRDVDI
UniProt P46527: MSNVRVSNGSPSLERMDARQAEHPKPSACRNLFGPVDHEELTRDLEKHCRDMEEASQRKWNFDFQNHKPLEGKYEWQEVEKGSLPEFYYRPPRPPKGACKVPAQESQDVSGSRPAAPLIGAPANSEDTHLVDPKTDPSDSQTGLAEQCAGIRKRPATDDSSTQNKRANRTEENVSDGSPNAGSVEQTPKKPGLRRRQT

Molecular target: cyclin D1/Cdk4 (transfected 293T cell extracts) (UniProt P24385)
Assay: GST pull-down with cyclin D1/Cdk4 transfected 293T extracts (FIG. 4E)

With “GST-p27 (p27 cDNA cloned into pGEX-2T) (from UniProt P46527 1-198)” the binding was “binds”.
